Article PMC7285181 (Pharmaceutics, 2020)
Where a name gives a salt, the structure may show the parent alone.

Tested on: histamine level in plasma
Test: Plasma histamine level after compound 48/80 (o-phthalaldehyde spectrofluorometric procedure)
Format: in vivo, mice
Method: Five groups each of 8 male albino mice were used in this experiment. Mice were housed 4 per cage and were maintained at room temperature (25 ± 0.5 °C). All experiments were performed in compliance with the guidelines approved by the ethics committee of Faculty of Pharmacy, The British University in Egypt (approval number Ex-1904). The mice in the first group were administered phosphate buffer saline orally (negative control group), while the second group were administered phosphate buffer saline 1 hour prior to an intraperitoneal injection of 8 mg/kg of the mast cell degranulator compound 48/80 which induces systemic anaphylaxis-like reactions in mice (positive control group). […] The mortality was monitored for 1 h after induction of anaphylactic shock. After the mortality test, blood was obtained from the heart of each mouse by cardiac puncture.
The obtained blood samples were centrifuged at 400 g for 10 min in a cooling centrifuge at 4 °C. The plasma was withdrawn, and the histamine content was measured by the o-phthalaldehyde spectrofluorometric procedure as mentioned by Shore et al.. The fluorescent intensity was measured at 438 nm in a spectrofluorometer.

Question: How did the “Histamine Concentration” value (mice plasma, n = 8, oral 1 h before i.p. compound 48/80 (8 mg/kg), ± SD) turn out when `CC(C)(C(=O)O)c1ccc(C(O)CCCN2CCC(C(O)(c3ccccc3)c3ccccc3)CC2)cc1` (centres unmarked) [FEX powder, Fexofenadine HCl] was run?
Answer: Its value is 236.4 ± 12.9 ng/mL.

Question: And the “Inhibition of histamine release (plasma histamine level)” value (mice, versus compound 48/80 positive control group)?
Answer: The value was 7.9%.
